From the supplement of paper PMC12819154, “High-throughput peptide-centric local stability assay extends protein–ligand identification to membrane proteins, tissues and bacteria” (Nature Structural & Molecular Biology, 2025)
The list shows a part of the results. Most values lie at the level of the controls, where differences are scatter.

By UniProt entry, the sequences of proteins in these tests, tags left out. Where a name states a change or a piece, a line headed by the entry shows the natural chain unless it says otherwise.
UniProt Q9CZY3: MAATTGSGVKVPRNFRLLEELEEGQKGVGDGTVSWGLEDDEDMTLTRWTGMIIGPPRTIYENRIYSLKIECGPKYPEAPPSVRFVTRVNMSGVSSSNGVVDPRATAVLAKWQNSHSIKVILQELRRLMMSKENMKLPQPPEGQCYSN
UniProt Q9D8B4: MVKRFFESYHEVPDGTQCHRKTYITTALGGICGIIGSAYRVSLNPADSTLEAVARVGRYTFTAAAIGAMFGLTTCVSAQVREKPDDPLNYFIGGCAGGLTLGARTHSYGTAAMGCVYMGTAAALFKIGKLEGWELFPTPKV
UniProt Q9DAW9: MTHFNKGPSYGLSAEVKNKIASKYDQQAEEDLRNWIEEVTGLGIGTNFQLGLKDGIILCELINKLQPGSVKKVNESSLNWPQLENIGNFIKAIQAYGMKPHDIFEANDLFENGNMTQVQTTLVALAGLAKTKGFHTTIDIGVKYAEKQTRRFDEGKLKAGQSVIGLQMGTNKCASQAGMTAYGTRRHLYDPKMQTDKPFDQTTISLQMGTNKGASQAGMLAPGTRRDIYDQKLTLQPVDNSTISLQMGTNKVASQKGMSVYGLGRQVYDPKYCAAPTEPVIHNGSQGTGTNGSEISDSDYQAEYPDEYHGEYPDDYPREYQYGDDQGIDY
UniProt Q9DBT5: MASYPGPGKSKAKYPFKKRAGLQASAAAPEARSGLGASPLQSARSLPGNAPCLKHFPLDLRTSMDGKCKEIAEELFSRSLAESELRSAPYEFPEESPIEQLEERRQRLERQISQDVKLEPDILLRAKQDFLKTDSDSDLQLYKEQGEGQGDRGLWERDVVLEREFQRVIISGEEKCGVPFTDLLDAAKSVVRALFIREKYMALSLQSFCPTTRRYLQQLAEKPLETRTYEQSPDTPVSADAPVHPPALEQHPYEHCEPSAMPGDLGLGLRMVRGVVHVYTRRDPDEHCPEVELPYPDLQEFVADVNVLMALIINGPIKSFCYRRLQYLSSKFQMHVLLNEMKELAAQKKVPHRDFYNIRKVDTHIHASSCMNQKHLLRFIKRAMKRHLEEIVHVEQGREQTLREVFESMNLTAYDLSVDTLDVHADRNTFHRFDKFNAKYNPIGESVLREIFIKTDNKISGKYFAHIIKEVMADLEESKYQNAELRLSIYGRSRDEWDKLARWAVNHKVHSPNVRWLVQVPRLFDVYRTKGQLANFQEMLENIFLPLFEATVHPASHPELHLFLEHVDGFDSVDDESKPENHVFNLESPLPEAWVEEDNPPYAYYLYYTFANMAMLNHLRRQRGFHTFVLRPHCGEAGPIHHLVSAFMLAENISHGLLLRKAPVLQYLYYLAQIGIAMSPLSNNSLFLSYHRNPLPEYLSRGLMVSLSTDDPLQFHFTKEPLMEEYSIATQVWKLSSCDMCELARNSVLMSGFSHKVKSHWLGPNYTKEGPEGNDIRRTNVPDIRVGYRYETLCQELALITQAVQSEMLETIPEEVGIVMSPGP
UniProt Q9DBN1: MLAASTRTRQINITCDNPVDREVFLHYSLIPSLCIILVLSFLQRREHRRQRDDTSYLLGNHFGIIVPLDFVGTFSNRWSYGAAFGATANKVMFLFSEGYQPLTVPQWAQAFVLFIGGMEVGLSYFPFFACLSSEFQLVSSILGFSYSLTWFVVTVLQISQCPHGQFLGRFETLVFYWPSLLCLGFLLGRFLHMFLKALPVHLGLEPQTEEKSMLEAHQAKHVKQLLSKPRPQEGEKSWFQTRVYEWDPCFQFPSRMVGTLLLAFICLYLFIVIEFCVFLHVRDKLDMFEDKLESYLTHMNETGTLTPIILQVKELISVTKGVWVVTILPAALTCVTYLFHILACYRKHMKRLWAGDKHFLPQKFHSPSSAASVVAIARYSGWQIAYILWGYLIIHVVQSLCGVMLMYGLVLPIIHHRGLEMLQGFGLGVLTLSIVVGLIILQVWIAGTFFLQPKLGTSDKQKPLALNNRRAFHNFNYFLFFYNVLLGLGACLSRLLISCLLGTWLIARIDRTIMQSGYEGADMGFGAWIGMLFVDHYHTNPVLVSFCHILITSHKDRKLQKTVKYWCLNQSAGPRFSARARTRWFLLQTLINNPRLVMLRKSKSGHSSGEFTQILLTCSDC
UniProt Q9CYR0: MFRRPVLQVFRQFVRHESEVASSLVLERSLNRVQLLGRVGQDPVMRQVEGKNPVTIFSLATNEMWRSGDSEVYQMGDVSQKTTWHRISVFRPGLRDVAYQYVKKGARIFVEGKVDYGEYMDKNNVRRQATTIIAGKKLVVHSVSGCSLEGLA
UniProt Q9D938: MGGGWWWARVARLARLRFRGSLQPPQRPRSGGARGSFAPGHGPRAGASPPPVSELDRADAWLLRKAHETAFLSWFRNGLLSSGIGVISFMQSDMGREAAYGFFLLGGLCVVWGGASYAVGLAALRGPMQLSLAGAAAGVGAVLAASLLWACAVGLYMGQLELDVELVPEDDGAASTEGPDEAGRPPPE
UniProt Q9DBG5: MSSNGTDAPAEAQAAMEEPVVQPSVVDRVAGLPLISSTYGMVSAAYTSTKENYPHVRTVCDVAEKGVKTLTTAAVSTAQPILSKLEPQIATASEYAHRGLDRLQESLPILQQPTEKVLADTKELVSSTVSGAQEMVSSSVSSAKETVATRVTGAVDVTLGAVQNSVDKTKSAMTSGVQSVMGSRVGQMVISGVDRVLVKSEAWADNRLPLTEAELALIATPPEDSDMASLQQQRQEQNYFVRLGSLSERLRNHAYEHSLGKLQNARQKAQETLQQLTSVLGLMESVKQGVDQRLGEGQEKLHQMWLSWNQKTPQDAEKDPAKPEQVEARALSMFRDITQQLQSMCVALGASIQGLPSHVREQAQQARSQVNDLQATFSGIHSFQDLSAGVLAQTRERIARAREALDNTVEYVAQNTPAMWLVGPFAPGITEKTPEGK
UniProt Q9CYW4: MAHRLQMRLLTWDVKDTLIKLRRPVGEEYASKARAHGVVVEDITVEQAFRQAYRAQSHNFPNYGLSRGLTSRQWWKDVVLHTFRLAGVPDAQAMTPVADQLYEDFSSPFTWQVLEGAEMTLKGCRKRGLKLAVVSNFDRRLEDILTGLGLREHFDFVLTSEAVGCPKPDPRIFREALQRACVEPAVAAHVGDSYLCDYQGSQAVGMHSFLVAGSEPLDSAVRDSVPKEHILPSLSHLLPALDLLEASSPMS
UniProt Q9CXW3, whole entry: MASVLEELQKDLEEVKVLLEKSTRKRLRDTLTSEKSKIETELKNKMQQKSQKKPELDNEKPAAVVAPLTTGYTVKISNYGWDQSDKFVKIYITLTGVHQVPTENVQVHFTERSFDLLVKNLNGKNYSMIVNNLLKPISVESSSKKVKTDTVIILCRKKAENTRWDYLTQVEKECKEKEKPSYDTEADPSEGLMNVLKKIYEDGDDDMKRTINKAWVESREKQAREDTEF
UniProt Q9CZ28: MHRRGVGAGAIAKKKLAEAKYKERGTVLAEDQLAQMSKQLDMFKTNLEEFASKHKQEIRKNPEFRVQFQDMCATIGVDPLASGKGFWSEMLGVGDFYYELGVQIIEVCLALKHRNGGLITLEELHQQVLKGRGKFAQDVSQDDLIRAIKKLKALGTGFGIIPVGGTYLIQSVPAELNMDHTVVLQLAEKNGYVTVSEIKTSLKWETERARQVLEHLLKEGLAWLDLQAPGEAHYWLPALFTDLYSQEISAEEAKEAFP
UniProt Q9D1N2: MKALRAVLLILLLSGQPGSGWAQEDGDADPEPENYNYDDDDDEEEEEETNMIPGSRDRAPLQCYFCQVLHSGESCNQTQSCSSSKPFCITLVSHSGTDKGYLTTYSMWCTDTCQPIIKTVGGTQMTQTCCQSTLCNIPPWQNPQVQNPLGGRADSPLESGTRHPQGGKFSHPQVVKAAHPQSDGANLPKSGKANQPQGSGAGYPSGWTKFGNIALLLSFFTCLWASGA
UniProt Q9D1P4: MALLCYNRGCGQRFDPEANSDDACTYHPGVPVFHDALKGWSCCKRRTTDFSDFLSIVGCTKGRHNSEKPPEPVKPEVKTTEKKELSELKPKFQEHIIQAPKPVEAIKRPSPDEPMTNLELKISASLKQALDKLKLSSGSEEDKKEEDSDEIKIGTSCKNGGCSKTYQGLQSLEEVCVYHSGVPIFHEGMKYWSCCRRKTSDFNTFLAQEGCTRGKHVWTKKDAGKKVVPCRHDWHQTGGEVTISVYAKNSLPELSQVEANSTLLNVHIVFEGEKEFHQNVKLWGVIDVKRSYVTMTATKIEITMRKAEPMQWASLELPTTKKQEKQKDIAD
UniProt Q9D6K8: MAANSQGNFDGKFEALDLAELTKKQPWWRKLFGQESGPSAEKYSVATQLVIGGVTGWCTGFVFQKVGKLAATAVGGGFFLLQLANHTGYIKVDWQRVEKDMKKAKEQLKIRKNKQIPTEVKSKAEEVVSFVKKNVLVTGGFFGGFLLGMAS
UniProt Q9D1A2: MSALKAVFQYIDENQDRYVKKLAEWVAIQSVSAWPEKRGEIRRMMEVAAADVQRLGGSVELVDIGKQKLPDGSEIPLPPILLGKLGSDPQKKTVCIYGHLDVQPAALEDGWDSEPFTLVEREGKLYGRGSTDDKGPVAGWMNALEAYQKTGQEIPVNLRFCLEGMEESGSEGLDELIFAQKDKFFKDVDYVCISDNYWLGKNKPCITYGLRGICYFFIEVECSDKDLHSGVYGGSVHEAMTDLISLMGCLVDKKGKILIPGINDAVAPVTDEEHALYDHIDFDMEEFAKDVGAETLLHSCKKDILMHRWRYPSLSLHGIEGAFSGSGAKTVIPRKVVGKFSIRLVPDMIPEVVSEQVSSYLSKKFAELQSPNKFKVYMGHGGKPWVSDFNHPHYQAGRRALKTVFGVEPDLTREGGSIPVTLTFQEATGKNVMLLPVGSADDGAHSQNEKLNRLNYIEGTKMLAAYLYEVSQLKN
UniProt Q9CZS1: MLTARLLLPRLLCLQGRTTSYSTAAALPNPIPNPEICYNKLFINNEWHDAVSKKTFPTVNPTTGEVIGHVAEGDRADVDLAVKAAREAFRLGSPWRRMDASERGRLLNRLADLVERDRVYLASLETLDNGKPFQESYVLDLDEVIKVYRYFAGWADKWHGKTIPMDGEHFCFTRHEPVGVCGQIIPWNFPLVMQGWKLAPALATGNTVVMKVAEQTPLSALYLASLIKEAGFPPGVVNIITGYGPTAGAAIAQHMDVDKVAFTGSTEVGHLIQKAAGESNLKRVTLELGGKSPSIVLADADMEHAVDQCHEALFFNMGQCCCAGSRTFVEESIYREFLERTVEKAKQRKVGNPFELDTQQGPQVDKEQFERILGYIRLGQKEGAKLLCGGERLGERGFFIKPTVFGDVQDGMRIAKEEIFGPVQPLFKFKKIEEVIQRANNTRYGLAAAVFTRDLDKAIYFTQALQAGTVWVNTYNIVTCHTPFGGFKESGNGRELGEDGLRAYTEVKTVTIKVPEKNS
UniProt Q9DBE0: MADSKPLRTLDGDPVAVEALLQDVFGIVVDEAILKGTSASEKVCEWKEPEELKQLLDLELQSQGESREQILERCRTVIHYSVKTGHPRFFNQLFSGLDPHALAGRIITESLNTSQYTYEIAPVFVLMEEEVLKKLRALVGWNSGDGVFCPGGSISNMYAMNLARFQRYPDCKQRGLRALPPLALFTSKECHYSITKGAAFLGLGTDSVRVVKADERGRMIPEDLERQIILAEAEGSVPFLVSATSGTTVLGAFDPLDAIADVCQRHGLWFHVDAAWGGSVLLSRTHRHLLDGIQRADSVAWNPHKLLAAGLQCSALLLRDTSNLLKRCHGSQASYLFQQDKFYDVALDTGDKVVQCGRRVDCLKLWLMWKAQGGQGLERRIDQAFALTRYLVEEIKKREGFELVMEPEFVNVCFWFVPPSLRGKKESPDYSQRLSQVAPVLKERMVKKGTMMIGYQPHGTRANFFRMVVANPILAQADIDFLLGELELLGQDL
UniProt Q9DBI0: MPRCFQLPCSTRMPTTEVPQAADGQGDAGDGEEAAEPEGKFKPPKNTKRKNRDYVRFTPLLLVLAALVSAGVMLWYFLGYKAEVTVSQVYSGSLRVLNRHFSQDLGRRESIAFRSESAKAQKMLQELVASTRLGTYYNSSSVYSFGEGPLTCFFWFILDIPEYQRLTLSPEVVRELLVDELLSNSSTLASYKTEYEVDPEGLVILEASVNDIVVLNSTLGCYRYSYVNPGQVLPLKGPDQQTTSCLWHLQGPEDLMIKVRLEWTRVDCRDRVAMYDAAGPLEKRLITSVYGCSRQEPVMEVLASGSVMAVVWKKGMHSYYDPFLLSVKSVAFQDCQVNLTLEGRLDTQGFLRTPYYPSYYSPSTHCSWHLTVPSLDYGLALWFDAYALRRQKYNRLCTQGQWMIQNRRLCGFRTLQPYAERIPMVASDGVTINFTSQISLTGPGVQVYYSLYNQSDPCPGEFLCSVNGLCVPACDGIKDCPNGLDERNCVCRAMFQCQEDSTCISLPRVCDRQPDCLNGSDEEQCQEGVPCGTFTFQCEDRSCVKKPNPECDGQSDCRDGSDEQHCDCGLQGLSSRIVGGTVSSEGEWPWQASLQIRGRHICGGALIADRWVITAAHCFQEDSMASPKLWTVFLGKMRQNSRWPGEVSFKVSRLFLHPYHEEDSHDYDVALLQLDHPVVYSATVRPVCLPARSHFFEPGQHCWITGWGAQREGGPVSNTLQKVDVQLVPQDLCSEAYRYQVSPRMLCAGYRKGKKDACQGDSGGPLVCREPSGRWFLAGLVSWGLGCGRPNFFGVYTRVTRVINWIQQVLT

compound: CN[C@@H]1C[C@H]2O[C@@](C)([C@@H]1OC)n1c3ccccc3c3c4c(c5c6ccccc6n2c5c31)C(=O)NC4 [staurosporine]; assay: log2 fold change of pooled soluble protein (PISA), ligand vs vehicle (log2 ratio); higher = more thermally stabilized; conditions: ligand concentration: 20 uM; assay format: PISA pool 52.9/55.5/58.6 C

Row | Target | log2 fold change of pooled soluble protein
1 | UniProt Q9D6K7 | -0.15
2 | UniProt Q9CXK9 | -0.0853
3 | UniProt Q9CZY3 | -0.215
4 | UniProt Q9DBZ5 | 0.0417
5 | UniProt Q9D8B4 | 0.325
6 | UniProt Q9DB25 | 0.194
7 | UniProt Q9D8L5 | -0.201
8 | UniProt Q9DAW9 | -0.0347
9 | UniProt Q9DBT5 | -0.0199
10 | UniProt Q9D110 | -0.0288
11 | UniProt Q9D7J4 | 0.0804
12 | UniProt Q9D1C3 | -0.324
13 | UniProt Q9DBN1 | 0.144
14 | UniProt Q9CYR0 | -0.000328
15 | UniProt Q9D938 | -0.0897
16 | UniProt Q9D4C5 | 0.0258
17 | UniProt Q9D0M0 | 0.22
18 | UniProt Q9D0E1 | 0.109
19 | UniProt Q9DBG5 | 0.0234

Row | Target | log2 fold change of pooled soluble protein
20 | UniProt Q9CYW4 | 0.0218
21 | UniProt Q9D8C4 | -0.0508
22 | UniProt Q9CXW3 | 0.0221
23 | UniProt Q9CZ28 | 0.0199
24 | UniProt Q9D1N2 | 0.0735
25 | UniProt Q9D1P4 | -0.026
26 | UniProt Q9D735 | 0.00726
27 | UniProt Q9D6K8 | -0.0043
28 | UniProt Q9CZD3 | -0.099
29 | UniProt Q9D1A2 | -0.182
30 | UniProt Q9D620 | -0.422
31 | UniProt Q9D154 | -0.114
32 | UniProt Q9CZS1 | -0.132
33 | UniProt Q9DBE0 | 0.0659
34 | UniProt Q9DAM5 | -0.0715
35 | UniProt Q9DBI0 | 0.11
36 | UniProt Q9DB27 | -0.0387
37 | UniProt Q9D379 | -0.0524

Taken from above:
UniProt Q9DB27 – log2 fold change of pooled soluble protein: -0.0387
UniProt Q9D0M0 – log2 fold change of pooled soluble protein: 0.22
